Data as given in PubChem BioAssay AID1259424 (University of Nebraska Medical Center, 2018)
This is an unselected part of about 14,000 reagents tested. 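Higher correlation or smaller distance means closer resemblance to KSR1 loss; control wells, including KSR1 knockdowns, recur on many plates.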 Not all columns of the deposit are shown. The record does not give: the time to read-out.

Screen: 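Seek colon cancer survival genes behaving like KSR1, using a six-gene signature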 (primary screen)
Cells: human HCT116 colon cancer cells
Knock-down reagent: siRNA pool against human genes, 50 nM
Read-out: 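Log2 levels of six mRNAs (branched-DNA multiplex), adjusted by two reference genes and the non-targeting median, then scored against the average KSR1 knockdown pattern as Pearson r and euclidean distance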
Scale: mean correlation with KSR1 profile: higher = expression change more like KSR1 knockdown

With STMN2, how do the results read?
mean correlation with KSR1 profile: -0.00216

How did the screen score LAX1?
mean correlation with KSR1 profile: -0.601

With TNFRSF10C, what does the deposit list?
mean correlation with KSR1 profile: -0.151

For MATK, how do the results read?
mean correlation with KSR1 profile: 0.732

With FCRL3, how do the results read?
mean correlation with KSR1 profile: -0.771

With PITPNM3, what was measured?
mean correlation with KSR1 profile: 0.203

With MICU1, what was measured?
mean correlation with KSR1 profile: -0.504

With UTP23, what was measured?
mean correlation with KSR1 profile: 0.556

What did the screen give for AHCTF1?
mean correlation with KSR1 profile: -0.469

How did the screen score BRIX1?
mean correlation with KSR1 profile: -0.238

With JHY, what does the deposit list?
mean correlation with KSR1 profile: 0.733

With GCK, how do the results read?
mean correlation with KSR1 profile: -0.0738

Which result is listed for RPS6KA3?
mean correlation with KSR1 profile: 0.0206

For RBM22, what was measured?
mean correlation with KSR1 profile: -0.631

How did the screen score DOCK2?
mean correlation with KSR1 profile: -0.453

Which result is listed for ZNF512?
mean correlation with KSR1 profile: -0.0186

For SLC38A12, what does the deposit list?
mean correlation with KSR1 profile: -0.255

For RBM6, how do the results read?
mean correlation with KSR1 profile: 0.578

For DCLK3, how do the results read?
mean correlation with KSR1 profile: 0.0439
